Results are given in words; binding and its absence hold for the method and conditions named. In cells and extracts the contact can be indirect. A yes stands for co-enrichment or nearness to the bait. Other partners may have been found. Sequences can lack the tags named with a protein.

The chains behind the UniProt entries cited, without tags or fusion partners. Where a name states a change or a piece, a line headed by the entry shows the natural chain unless it says otherwise.
UniProt Q2FJ92: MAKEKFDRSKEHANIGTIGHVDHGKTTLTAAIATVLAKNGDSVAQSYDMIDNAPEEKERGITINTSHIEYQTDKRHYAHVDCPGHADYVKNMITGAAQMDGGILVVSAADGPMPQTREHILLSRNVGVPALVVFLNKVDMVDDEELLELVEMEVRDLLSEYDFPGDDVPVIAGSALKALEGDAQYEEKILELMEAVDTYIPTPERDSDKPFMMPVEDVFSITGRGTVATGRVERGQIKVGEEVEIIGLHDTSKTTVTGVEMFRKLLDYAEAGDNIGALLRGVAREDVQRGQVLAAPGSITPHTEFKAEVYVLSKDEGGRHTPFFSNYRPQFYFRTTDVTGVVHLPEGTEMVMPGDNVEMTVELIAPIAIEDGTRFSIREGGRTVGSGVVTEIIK
UniProt A0A0H2XFW2: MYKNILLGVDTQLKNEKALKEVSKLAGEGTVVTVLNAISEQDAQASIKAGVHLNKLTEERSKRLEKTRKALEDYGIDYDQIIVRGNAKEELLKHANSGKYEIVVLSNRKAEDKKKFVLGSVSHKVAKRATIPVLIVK

Among the data in PMC9522360, “Bidirectional sequestration between a bacterial hibernation factor and a glutamate metabolizing protein” (Proceedings of the National Academy of Sciences of the …, 2022) are binding values, retold here.

This assay addresses T1, 2×FLAG HPF (hibernation-promoting factor with a tandem FLAG tag inserted at position 70) (S. aureus) (UniProt Q2FIN9).
T1 sequence: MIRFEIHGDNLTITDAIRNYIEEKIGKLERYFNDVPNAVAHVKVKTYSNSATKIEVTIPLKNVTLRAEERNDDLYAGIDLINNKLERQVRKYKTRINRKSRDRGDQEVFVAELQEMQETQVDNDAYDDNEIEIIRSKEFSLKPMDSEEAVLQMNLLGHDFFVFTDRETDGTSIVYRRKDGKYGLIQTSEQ
In words: affinity purification with mass spectrometry; lysates of S. aureus Δhpf with 2×FLAG HPF (untagged HPF as control), exponential (4 h) or stationary phase (18 h); anti-FLAG M2 magnetic beads, 1 h at ~22 °C and 15 h at 4 °C, Buffer C (50 mM Tris-Cl pH 7.5, 100 mM KCl, 1 mM PMSF); elution with glycine pH 2.6; SDS-PAGE bands and gel-free eluate by LC-MS/MS.

For “translation factor EF-Tu (from UniProt Q2FJ92 1-394)”, the binding result is listed as “binds”.

For “universal stress protein (Usp homolog, SAUSA300_1652) (from UniProt A0A0H2XFW2)”, the binding result is recorded as “binds”.
